Assay [1] deals with MCF-7. As to the kind of experiment: MTT cytotoxicity assay, MCF-7 breast cancer cell line. The assay is classed as cell-based. As to conditions: Homo sapiens, MCF7; MCF-7, MTT; read-out: MCF-7 IC50 (µM) ± SD. The source says: (§1) To evaluate the antitumor activity of the newly synthesized sulfonamide carbonic anhydrase inhibitors (compounds M3, M4, and M5), we employed cell line assays using 3-(4,5-dimethylthiazol-2-yl)-2,5-diphenyltetrazolium (MTT). Two cell types were utilized in this study: MCF-7, a breast cancer cell line, to assess the effects of the compounds on cancer cells, and MCF10A, a normal breast epithelial cell line, to evaluate the effects on non-cancerous cells. These cell lines were procured from the Iranian National Cell Bank at the Pasteur Institute. MCF-7 cells were cultured in RPMI-1640 medium, while MCF10A cells were cultured in DMEM: F12 medium. Both media were supplemented with 10% fetal bovine serum (FBS), followed by the addition of antibiotics (100 µg/ml streptomycin and 100 units/ml penicillin). The cells were maintained in a humidified atmosphere at 37°C with 5% carbon dioxide. For cell passaging, a trypsin/EDTA solution (Gibco) and phosphate-buffered saline (PBS) were utilized. Cell viability was assessed using MTT from Sigma-Aldrich. Each type of cell (MCF-7 and MCF10A) was cultured separately in 96-well plates (1.4 × 10^4 cells per well with 200 µl of fresh medium) after a full day had passed (temperature of 37°C in a 5% CO2 environment). […] An ELISA reader (Model Wave xs2, BioTek) was used to measure cell vitality by absorption at 570 nm and calculate the IC50 values.

Assay [2] deals with MCF10A. In words: MTT cytotoxicity assay, MCF10A normal breast epithelial cell line. The class given is cell-based. As to conditions: Homo sapiens, MCF-10A, MCF10A normal cells, read-out: MCF10A IC50 (µM) ± SD.
Description: as §1
A general note: Tetrazolium dyes change colour on reduction, which living cells bring about.

By IC50 is commonly meant the concentration that inhibits the measured activity by half.

`CC(=O)Nc1nnc(S(N)(=O)=O)s1` [AZZ, acetazolamide, reference compound]: the IC50 in assay [1] came out at 67.5 ± 1.8 µM; in assay [2], 53.9 ± 5.64 µM.

The record behind these values is article PMC10994617, “In silico study, synthesis, and antineoplastic evaluation of thiazole-based sulfonamide derivatives and their silver complexes with expected carbonic anhydrase inhibitory activity” (Journal of Medicine and Life, 2023).
